## Primary screen of a compound library

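Whole-cell assay for inhibitors of Mycobacterium tuberculosis growth, labelled Cornell in the record; the read-out is not stated. The concentration is filed as 10 mM, unlikely as a test dose, so the dose is not known. The record gives no direction; compounds strong in two other growth screens of this library score well above the rest, so higher reads as stronger inhibition. About 53,000 compounds were tested under these conditions; 1.7% (about 900) showed 50% or more at least once.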

The filed quantity is “Percent Effect” (%).
How 0% and 100% were set is not recorded. Most values in the screen are low, and negative values occur.
Compounds were drawn at random from those tested, without regard to their results.

compound,percent effect
O=C(c1c[nH]nc1-c1cccc(F)c1)N1CCNC(c2ccccc2)C1 (stereo not given),-13.38
CC(C)(C)c1nnc(CN2CCCC(Cn3cncn3)C2)o1 (stereo not given),3.989
Cc1cccn2c(NC(C)(C)C)c(C3CCN(C(=O)C4CC4)CC3)nc12,-0.6063
Cn1ccnc1CNC(=O)CC1CCCCO1 (stereo not given),36.39
NC(=O)NC(=O)CCSCc1cc(F)cc2cccnc12,22.27
O=S(=O)(c1cccnc1)N1CCN(CCn2ccnc2)CC1,-20.01
N#Cc1ccccc1N1CCCN(CC(=O)Nc2ccccc2Cl)CC1,-5.131
CCC(Nc1nccc(C2CCCC2)n1)c1ncccc1C (stereo not given),5.871
COc1c(C2CCCN2C(=O)c2ccoc2)c(C)nn1C (stereo not given),-7.401
CN(Cc1ccsc1)C(=O)c1cccc(S(=O)(=O)NC(C)(C)C)c1,6.753
CCCNC(=O)c1cc2c(s1)CCN2C(=O)CN(C)C.O=C(O)C(F)(F)F,23.55
CN(C(=O)COc1ccc(F)cc1)[C@@H]1CC[C@@H](n2ccnc2)[C@@H]1O,27.13
COc1ccc(NC(=O)N2CCCC2c2ccco2)cc1OC (stereo not given),10.23
FC(F)(F)COc1ccc(CSCc2ccon2)cn1,11.61
COc1c(CNCc2cccc(CS(C)(=O)=O)c2)c(C)nn1C,6.454
COc1cccc(CNCc2nnc3n2CC(C(F)(F)F)CC3)c1 (stereo not given),-25.86
CN(Cc1cnn(C)c1)C(=O)c1cc2ccccc2c(=O)[nH]1,-33.54
CCc1oc(C(=O)NC(C)c2ncn[nH]2)cc1CN1CCCC1 (stereo not given),0.05784
Cn1cc(CN2CCn3c(CNC(=O)c4cccn4C)cnc3C2)cn1.O=C(O)C(F)(F)F,11.1
CN1CCN(c2cc(CNC(=O)c3ccc(=O)n(C)c3)ccn2)CC1,-3.901
CN(CCc1ccccc1)c1cnn(C)c(=O)c1Br,-7.422
CCN(C(=O)c1ccc2nncn2c1)C(C)Cc1ccc(OC)cc1 (stereo not given),8.324
CC1CN(C(=O)c2sccc2Br)CCO1 (stereo not given),7.374
CN(C)CC1CSCCCN1C(=O)c1ccc(C(C)(C)C)cc1 (stereo not given),16.65
COCCN1CCCC12CCN(c1ncccn1)CC2.O=C(O)C(F)(F)F,-33.26
CC(NCc1cccs1)c1ccc(OCc2nccn2C)cc1 (stereo not given),5.085
Cc1ccc(N2CCCC(NC(=O)C(C)(C)C#N)C2=O)cc1 (stereo not given),-36.86
COCCN1CCc2ccccc2NCCC1=O,4.05
CC(C)c1nn(C)c(N(C)C)c1CNC1CCCCNC1=O (stereo not given),91.87
CC(C)C(=O)N1CCC12CCCN(C(=O)c1ccnnc1)C2 (stereo not given),-23.23
Cc1ccc(N2CCN(C(=O)CCC(F)(F)F)C(C)C2)cc1 (stereo not given),32.97
CC(NCc1ccncc1)c1cc2c(cc1Br)OCCO2 (stereo not given),9.741
O=C(NCc1cn2c(n1)CN(Cc1nccs1)CC2)C1CCC1.O=C(O)C(F)(F)F,14.76
CS(=O)(=O)CCNC(=O)C1(c2cccc(Cl)c2)CCCCC1,-1.773
O=C(N1CCOCC1)N1CCCC1c1nc(-c2ccccn2)no1 (stereo not given),18.19
CC(C)c1ccc(C(=O)O)cc1S(=O)(=O)Nc1ccc(=O)n(C)c1,-20.95
Cc1noc(-c2cnc(NC(C)C)nc2-c2ccco2)c1C,32.42
Cn1cc(C2CC(=O)NC23CCN(C(=O)c2cccnc2)CC3)cn1.O=C(O)C(F)(F)F (stereo not given),33.02
Cc1cncc(C(=O)N2CCOc3nc(C)ccc32)c1,-0.7789
Cc1nn(C)c(C)c1C1CCCN1Cc1nc(-c2ccco2)no1 (stereo not given),47.86
COCCN(C/C=C/c1ccccc1)Cc1nccs1,-17.5
CNC(=O)C(C)NC(=O)c1cc(COc2ccc(OC)cc2Cl)[nH]n1 (stereo not given),5.985
O=C(Cc1cc(-c2ccc3c(c2)OCCO3)on1)NCc1ccccn1,-20.17
Cl.NCCCNS(=O)(=O)Cc1ccc(Br)cc1,15.91
Cc1cc(C(=O)N2CCc3nc(N4CCOCC4)nc(C)c3C2)c(C)o1.O=CO,-4.372
CS(=O)(=O)Cc1ccc(C(=O)NCc2ccc(Cl)cc2Cl)cc1,6.926
O=C(CC1CC1)N1CCc2ncc(CN3CCOCC3)n2CC1.O=C(O)C(F)(F)F,9.336
CN1CCc2c(C#N)c(NCC3CCCO3)n3cnnc3c2C1.Cl (stereo not given),2.965
NC(=O)C1CCN(CCc2ccc(NCc3ccoc3)cc2)CC1,0.1871
Cc1nc2cc(O)nn2c(C)c1CCC(=O)N(C)Cc1cscn1,-20.16
Cc1cccc(C(=O)Nc2cccc3c2CCCC3)n1,-7.807
Cc1nc(C2CCN(S(=O)(=O)c3ccc4c(c3)CCC4)CC2)n[nH]1,41.41
N[C@H]1CN(C(=O)Cc2ccc(CO)cc2)C[C@@H]1C1CC1,-2.64
COc1ccc(C(=O)N2CCCC2c2ccco2)cc1OC (stereo not given),-21.72
Cn1cc(CNCCNc2ncc(Cl)cc2Cl)cn1,-27.94
Cc1nccc(N2CCN(C3CCOCC3)CC(C(=O)N(C)C)C2)n1 (stereo not given),1.108
CC(C)(C(=O)NCCCc1nc2ccccc2[nH]1)n1cc(Cl)cn1,-2.232
COCCc1noc(CN2CCCC2c2noc(C)n2)n1 (stereo not given),6.365
CCS(=O)(=O)N(C)C1CCN(Cn2ccc(-c3ccc(F)cc3)n2)CC1,38.77
Cc1occc1C(=O)N1CCCN(Cc2ncc(Cl)n2C)CC1,4.389
CCNc1cc2c(nn1)CCN(C(=O)C1Cc3ccccc3S1)C2 (stereo not given),12.56
COCCN(CCOC)c1ncc(C#N)cc1Cl,36.08
Cc1nc(-c2cnn(C)c2)nc2c1CN(C(=O)c1cccn1C)CC2,11.62
CCOC(=O)[C@H]1[C@@H](O)C(=O)N(C)C12CCN(C(=O)OCC)CC2,-38.06
COc1nc(C)c(C(=O)NCc2cc(N3CCOCC3)ncn2)s1,7.012
Cc1nc(C)n(CC2CCCN2c2ncnc3sccc23)n1 (stereo not given),1.111
CCN(Cc1nccn1C)C(=O)c1ccc(NCc2cnn(C)c2)nc1,3.537
COc1cccc2sc(N3CC(OC(C)=O)C3)nc12,10.48
CC(C)N1CCOC(Cc2nn3c(Cc4ccccc4)nnc3s2)C1 (stereo not given),7.02
CCN1Cc2ccccc2CC2(CCN(C)CC2)C1=O,-11.89
Cc1cnn(CC2CCCN2Cc2nnsc2Cl)c1 (stereo not given),-11.13
COc1cc(CNc2cnn(CCN3CCOCC3)c2)cc(OC)c1,5.37
O=C1N(Cc2ccc(F)cc2)CCCC12CCN(C1CCSCC1)C2 (stereo not given),28.24
FC(F)(F)c1ccc(CNC[C@H]2COCc3nc4cccnc4n32)cc1,23.18

Once more, the final 7:

- COc1cccc2sc(N3CC(OC(C)=O)C3)nc12 | 10.48%
- CC(C)N1CCOC(Cc2nn3c(Cc4ccccc4)nnc3s2)C1 (stereo not given) | 7.02%
- CCN1Cc2ccccc2CC2(CCN(C)CC2)C1=O | -11.89%
- Cc1cnn(CC2CCCN2Cc2nnsc2Cl)c1 (stereo not given) | -11.13%
- COc1cc(CNc2cnn(CCN3CCOCC3)c2)cc(OC)c1 | 5.37%
- O=C1N(Cc2ccc(F)cc2)CCCC12CCN(C1CCSCC1)C2 (stereo not given) | 28.24%
- FC(F)(F)c1ccc(CNC[C@H]2COCc3nc4cccnc4n32)cc1 | 23.18%

Measurements from “University of Dundee, Small-Polar-MMV Screening Library” (2021), ChEMBL document CHEMBL3988442.